In PubChem BioAssay AID686970 (National Center for Advancing Translational Sciences (NCATS), 2013):
This is a selection; strong and weak results do not stand in their true shares. Results filed as inconclusive are left out. The source made the active and inactive calls. Calls come from the whole dose curve; as a rule, active = well fitted cell-killing curve with a large enough effect; inconclusive = small, poorly fitted or top-dose-only effect, or effect the other way; inactive = flat fitted curve, though single readings scatter.

Test: qHTS for induction of synthetic lethality in tumor cells producing 2HG: qHTS for the HT-1080-NT fibrosarcoma cell line; note: nearly all actives have a fitted effect of over 55% in size
Settings: HT-1080-NT fibrosarcoma viability, CellTiter-Glo ATP luminescence, 48 h
Text: Unbiased genomic sequencing for 22 glioma genomes found recurrent mutation of IDH1 on chromosome 2q33, a gene encoding the cytosolic isoform of IDH1 associated with the tricarboxylic acid cycle (TCA) that catalyzes the oxidative decarboxylation of isocitrate, yielding alpha-ketoglutarate and CO2 via NADP+ to NADPH conversion. Subsequent studies confirmed the recurrent IDH mutations in up to 70% of secondary gliomas and in 10% of AML cases. In addition, the somatic mutation of cancer-associated IDH1 is a point mutation resulting in various amino-acid substituents at Arginine132 (IDH1 R132), a key residue found in the enzyme's active site that when mutated, results in the loss-of-function in metabolizing isocitrate but confers a gain-of-function to produce the oncometabolite 2-hydroxyglutarate (2HG). This in effect defines IDH1 as an oncogene and provides an extraordinary opportunity to discover chemical probes against mutant IDH1 that may translate into much needed new therapies for glioma and AML patients.
This assay aims to perform a synthetic lethal screen for chemical probes specific for 2HG-producing tumor cells using matched paired cell lines (1) HT-1080-NT fibrosarcoma cell line that overproduces 2HG and (2) HT-1080-IDH1KD cell line which has IDH1 expression knocked-down. Desirable compounds are toxic to the NT fibrosarcoma cells but not to the IDH1KD cell line. […]
Suspensions of trypsinized HT-1080-NT cells were dispensed into white, tissue culture-treated, solid 1536-well plates at 5uL/well (750 cells/well final concentration) in RPMI medium supplemented with 5% FBS. […] The plates were measured on a PerkinElmer ViewLux plate reader for luminescent signal (clear filter, 1 sec exp). […]
Concentration-response curves were fitted to the signals arising from the resulting luminescence. The concentration-effect curves were then classified based on curve quality (r2), response magnitude and degree of measured activity, and compounds were subsequently categorized based on their curve class.
Potency is the fitted concentration of half-maximal effect.

Structure (SMILES)	Potency
CNC1CCc2cc(OC)c(OC)c(OC)c2-c2ccc(SC)c(=O)cc21 (stereo not drawn)	active: 206 nM
CCOC(=O)NC1CCc2cc(OC)c(OC)c(OC)c2-c2ccc(OC)c(=O)cc21 (stereo not drawn)	active: 184 nM
COc1cc2c(c(OC)c1OC)-c1ccc(OC)c(=O)cc1C(N)CC2 (stereo not drawn)	active: 184 nM
